Results reported in US20190083521A1, “COMBINATION THERAPY FOR TREATING CANCER” (Epizyme, Inc., priority 2014, published 2019).
For some of these results: At least one read-out could not be matched to a standard name with certainty. For some of these results: For at least one compound, name, drawing or mass did not settle the structure.

Experiments:
Assay type in all cases: cell-based, human
[1] = system: MOLM-13 (MLL-AF9) cells; assay: Combination proliferation assay with Compound A2 (CellTiter-Glo, Chou-Talalay CI)
Procedure: (§1) The acute myelogenous leukemia cell lines MV4-11 (MLL-AF4) and MOLM-13 (MLL-AF9) were obtained from American Type Culture Collection (ATCC; Rockville, Md.) and Deutsche Sammlung von Mikroorganismen and Zellkulturen (DSMZ; Braunschweig, Germany) respectively.
(§2) Studies were performed using MLL-rearranged cell lines in vitro to evaluate the anti-proliferative effect of a combination of two agents together on cell growth. Initial proliferation studies were performed to determine the IC50 of a given compound in each cell line. The cell counts were measured by ATP quantitation using the Promega Cell Titer Glo kit and luminescence values corresponded to the amount of ATP in a given well.
(§3) Compounds were evaluated for synergy in the co-treatment phase by testing the compounds in a concentration range which was bracketed around their IC50 values. […]
(§4) The drug combination analysis was performed utilizing the Chou-Talalay method Synergy was determined using the software package Calcusyn by Biosoft. The combination index (CI) is a quantitative term used to describe the level of synergy or antagonism in a given test system. […]
(§5) The HP-D300 digital dispenser (Tecan) was used to dispense compounds in a combinatorial matrix. […] Cell viability was measured via ATP content using CellTiter-Glo® (Promega).
(§6) Viability was determined using CellTiter-Glo® (Promega). […]

[2] = system: MV4-11 (MLL-AF4) cells; assay: as above
Procedure: as §1, §2, §3, §4, §5, §6

[3] = system: MOLM-13 cells; assay: Example 6 combination screen: 300 nM EPZ-5676 pre-treatment, second compound 72 h, ATPLite, IC50 shift
Procedure: Cells were then equilibrated in incubators for 24 hours before treatment with a second compound. Treated assay plates were incubated with a second compound for 72 hours. After this time, plates were developed for endpoint analysis using ATPLite to measure ATP content, which is used as an indicator of cell viability.
“N/D” means that IC50 of the second compound could not be determined for both conditions.

| SMILES | Summary of Combination Studies: MOLM-13 [3] | other results |
| --- | --- | --- |
| COc1cccc2c1C(=O)c1c(O)c3c(c(O)c1C2=O)C[C@@](O)(C(C)=O)C[C@@H]3O[C@H]1C[C@H](N)[C@H](O)[C@H](C)O1 [Daunorubicin] | – | Combination effect with Compound A2 (Table 4) [1]: Synergy (key: Synergy: Drug synergy was statistically defined by CI values less than 1; Antagonistic: antagonism by CI>1; Additive: additive effect by CI equal to 1) |
| C/C=C1\NC(=O)[C@H]2CSSCC/C=C/[C@H](CC(=O)N[C@H](C(C)C)C(=O)N2)OC(=O)[C@H](C(C)C)NC1=O [Romidepsin] | – | Combination effect with Compound A2 (Table 5) [2]: No change IC50 |
| C=C(NC(=O)C(=C)NC(=O)c1csc(C2=N[C@@H]3c4csc(n4)[C@H]4NC(=O)c5csc(n5)[C@H]([C@](C)(O)[C@@H](C)O)NC(=O)[C@H]5CSC(=N5)/C(=C/C)NC(=O)[C@H]([C@@H](C)O)NC(=O)c5csc(n5)[C@]3(CC2)NC(=O)[C@H](C)NC(=O)C(=C)NC(=O)[C@H](C)NC(=O)[C@H]([C@@H](C)CC)N[C@@H]2C=Cc3c([C@H](C)O)cc(nc3[C@H]2O)C(=O)O[C@@H]4C)n1)C(N)=O [Thiostrepton] | Synergy | – |
| CS(=O)(=O)c1ccc(-c2cnc(N)c(C(=O)Nc3ccccc3)n2)cc1 [VE-821] | Synergy | – |
